Assay results as given in patent US12329799B2, “Peptidyl inhibitors of calcineurin-NFAT interaction” (Ohio State Innovation Foundation, priority 2018, dated 2025).
At least one compound was matched to its structure with a doubt left. Positions of bridges follow the written chain, without caps; N, C: chain ends. Non-standard residues stand in square brackets, D forms with d. Residues, ends and D or L forms follow the SMILES beside them. Chains are numbered I, II in the order given. *: point of attachment. Benzoyl(2,3-Cl2) = O=C(c1cccc(Cl)c1Cl)*; 2Nal = N[C@@H](Cc1ccc2ccccc2c1)C(=O)O; Tle = CC(C)(C)[C@H](N)C(=O)O; βAla = NCCC(=O)O

Test: Aqueous solubility (turbidity at 780 nm)
Type: physicochemical
Conditions: PBS (pH 7.4) containing 5% DMSO; 100 μM highest concentration tested
Procedure: The peptide was serially diluted from a DMSO stock into PBS (pH 7.4) containing 5% DMSO and the optical density of the resulting solutions were measured at 780 nm.
Solubility. Peptides were diluted from a DMSO stock into PBS, pH 7.4 and then serially diluted in identical buffer to standardize DMSO concentration in clear, 96-well plates. The solutions were allowed to stand for 1 h at RT without mixing and then turbidity was measured at 780 nm using a Tecan Infinite M1000 plate reader.

## CC[C@H](C)[C@H](NC(=O)[C@@H](NC(=O)c1cccc(Cl)c1Cl)C(C)(C)C)C(=O)N[C@H](C(=O)N[C@H](C(=O)N[C@H](C(=O)N[C@@H](CCC(N)=O)C(=O)N[C@@H](Cc1c[nH]cn1)C(=O)N[C@H](CC(C)C)C(=O)N[C@@H](CO)C(=O)NCCC(=O)N[C@@H](CCCCNC(=O)CC[C@@H]1NC(=O)[C@@H](CCCNC(=N)N)NC(=O)[C@H](CCCNC(=N)N)NC(=O)[C@@H](CCCNC(=N)N)NC(=O)[C@H](CCCNC(=N)N)NC(=O)[C@H](Cc2ccc3ccccc3c2)NC(=O)[C@@H](Cc2ccccc2)NC1=O)C(N)=O)[C@@H](C)O)[C@@H](C)CC)C(C)(C)C [CNI93] (I: {Benzoyl(2,3-Cl2)}-[Tle]I[Tle]ITQH[dL]S[βAla]K-NH2 / II: cyclo([2Nal]R[dR]R[dR]E[dF]); amide I:11-II:6 (inferred); ring closure inferred)
  aqueous solubility: at least 100 μM
